# In PubChem BioAssay AID540276 (National Center for Advancing Translational Sciences (NCATS), 2011):
# Screen size: about 300,000 compounds; about 5,400 (1.8%) were called active. This list was built around the results that the source calls inconclusive (neither active nor inactive); the mix of calls is not that of the screen. Calls follow the shape of the full dose curve; tested in HEK293 cells. Potencies beside an inconclusive call are fits to weak or partial responses and may not hold up.
# Experiment: qHTS for inhibitors of binding or entry into cells for Marburg Virus
# Details: Marburg virus pseudotyped entry inhibition, cell reporter; activity change, negative = inhibition: at 37.8 µM (top of the series) unless noted
# % is scaled to controls: 0 for no effect and ±100 for the full control effect; potency is read from the fitted curve at half-maximal effect.
Structure (SMILES),Potency,"activity change, negative = inhibition"
Cc1cc(C(=O)CSc2nnc3ccccn23)c(C)n1-c1ccccc1,active: 0.316 µM,
CN(CC(=O)N1CCOCC1)C(=O)CSc1nc2ccccc2s1,,inactive: 6.49% [at 46.1 µM]
CCN(C(=O)CSc1nc2scc(-c3ccccc3)c2c(=O)n1N)C1CCS(=O)(=O)C1 (stereo not given),,inactive: 5.38%
CCOC(=O)CSc1nc2cc(C(=O)NCc3ccco3)ccc2c(=O)n1-c1ccc(F)cc1,"inconclusive: 5.8 µM [inhibitor, partial curve, poor fit]",
Cc1cccc(C(=O)N2c3nc(-c4ccco4)nn3C3(CCCCC3)[C@@H]3CCCC[C@@H]32)c1,"inconclusive: 3.98 µM [inhibitor, single point]",
CCOc1ccccc1NC(=O)Nc1ccc(Cl)cc1,"inconclusive: 0.708 µM [activator, partial curve, poor fit]",
CCN=c1sc(C(=O)NCCc2ccccc2)cc(=O)n1CC,"inconclusive: 2.06 µM [inhibitor, full curve]",
Cn1nc(C(=O)Nc2nc3ccccc3[nH]2)ccc1=O,"inconclusive: 14.1 µM [activator, single point]",
Cc1cc(NC(=O)C2CCN(S(=O)(=O)c3cccc4nsnc34)CC2)ccc1Br,,inactive: -7.14% [at 46.1 µM]
Cc1ccc(S(=O)(=O)Nc2ccccc2C=Nc2cccc(C)c2C)cc1,"inconclusive: 11.2 µM [inhibitor, partial curve, poor fit]",
Cc1nn(C)c(C)c1CN(Cc1nc(-c2ccc(F)cc2F)oc1C)C1CC1,"inconclusive: 31.6 µM [inhibitor, partial curve, poor fit]",
Cc1ccccc1NC(=O)CCN1CCN(CCO)CC1,,inactive: 5.66%
COC(=O)CSC1=C(C#N)C(c2ccccc2)CC(=O)N1 (stereo not given),"inconclusive: 25.9 µM [inhibitor, single point]",
CCNS(=O)(=O)c1ccc(CCC(=O)NCc2ccccc2)cc1,,inactive: 0.217% [at 46.1 µM]
N#Cc1ccsc1NC(=O)CSc1ncnc2ccccc12,,inactive: 10%
CCn1ccnc1CN(C)Cc1cn(-c2ccc(C)cc2)nc1-c1cccc(C)c1,"inconclusive: 6.31 µM [inhibitor, full curve, poor fit]",
Clc1ccc(CN2C3=NCCCN3c3ccccc32)cc1Cl,"inconclusive: 1.78 µM [inhibitor, full curve, poor fit]",
O=C(Cc1c(Sc2ccccc2)c2ccccc2n1Cc1ccccc1)NCCO,"inconclusive: 29.1 µM [inhibitor, single point]",
NC(=O)C1(N2CCCCC2)CCN(C(=O)Nc2ccc(F)cc2F)CC1,,inactive: 22.7% [at 46.1 µM]
COc1cc(CNCc2ccccn2)ccc1OCC(=O)NC1CCCCC1,,inactive: -5.06%
COc1cccc(-n2c(CN3CCN(Cc4ccccc4)CC3)nc3ccc([N+](=O)[O-])cc3c2=O)c1,"inconclusive: 5.17 µM [inhibitor, partial curve, poor fit]",
Cc1cccc(NS(=O)(=O)c2ccc(C(=O)N3CC(C)OC(C)C3)cc2)c1C (stereo not given),"inconclusive: 3.16 µM [inhibitor, full curve, poor fit]",
CCN(CC)C(=O)c1ccc(S(=O)(=O)c2ccccc2)cc1,"inconclusive: 5.62 µM [inhibitor, single point]",

Structure (SMILES),Potency,"activity change, negative = inhibition"
O=S(=O)(Nc1ccc(Cc2ccncc2)cc1)c1ccc(Cl)cc1,"inconclusive: 11.2 µM [inhibitor, partial curve, poor fit]",
COc1ccc(C(=O)ON=C2CCN(c3ccc([N+](=O)[O-])cc3)CC2)cc1,,inactive: 3.22%
Cc1nc(C)c(/C(O)=C/c2nc3ccccc3oc2=O)s1,"inconclusive: 0.082 µM [activator, partial curve, poor fit]",
O=C(NC1CCCCC1)c1ccccc1-c1ccccc1,"inconclusive: 1.26 µM [inhibitor, single point]",
CCCCCc1nc2c(c3c1CCCC3)CCCC2,"inconclusive: 35.5 µM [inhibitor, single point]",
CCOC(=O)c1[nH]c(=O)[nH]c1CSCCO,"inconclusive: 5.62 µM [inhibitor, single point]",
COc1ccc(S(=O)(=O)Nc2cccc(-c3ccc4nncn4n3)c2)cc1,"inconclusive: 1.41 µM [inhibitor, partial curve, poor fit]",
COc1cccc(OCCSc2nc(N)cc(N)n2)c1,"inconclusive: 35.5 µM [inhibitor, single point]",
Cc1ccc2nsnc2c1NC(=O)c1cccnc1Cl,,inactive: 1.4%
O=C(CN1CCN(c2ccc(F)cc2)CC1)NCc1cccs1,,inactive: -7.37%
CC(C)NC[C@@H](O)COc1cccc2[nH]ccc12,"inconclusive: 4.11 µM [activator, single point]",
CCOC(=O)N1CCN(C(=O)COc2cccc3c2CCN(Cc2ccc(F)cc2)C3=O)CC1,"inconclusive: 0.501 µM [inhibitor, partial curve, poor fit]",
CCCCOC(=O)/C=C\C(=O)NC(N)=O,"inconclusive: 35.5 µM [inhibitor, single point]",
O=C(Oc1ccc(N2C(=O)CCC2=O)cc1)c1ccco1,,inactive: 20.2%
Cc1ccc(S(=O)(=O)c2c(C)nn(C(C)(C)C)c2OC(=O)c2ccco2)cc1,"inconclusive: 35.5 µM [inhibitor, single point]",
CC(=O)c1cc(C)c(OCc2cn(CC(=O)c3ccc(O)cc3)nn2)c(C)c1,"inconclusive: 0.445 µM [inhibitor, full curve, poor fit]",
CCC1CCCCN1C(=O)COc1c(Br)cc(Br)c2cccnc12 (stereo not given),"inconclusive: 3.98 µM [inhibitor, full curve]",
CCOC(=O)c1c(CN(CC)CC)oc2cc(Br)c(O)cc12,,inactive: 0.641%
Cc1ccc(-c2csc(Nc3ccc(C(=O)O)cc3)[n+]2Cc2ccccc2)cc1,"inconclusive: 35.5 µM [activator, single point]",
CSc1n[nH]c(=O)n1-c1cccc(Cl)c1,"inconclusive: 5.62 µM [activator, single point]",
C#CCOC(=O)c1ccccc1C(=O)OCC#C,,inactive: 15.2%
CCN(CC)CC(=O)N1c2ccccc2Oc2c(c(=O)n(C)c(=O)n2C)C1c1cccc([N+](=O)[O-])c1 (stereo not given),,inactive: -12.2% [at 46.1 µM]

# Quoted from the listing (12 entries):
Structure (SMILES),Potency,"activity change, negative = inhibition"
CCOC(=O)c1[nH]c(=O)[nH]c1CSCCO,"inconclusive: 5.62 µM [inhibitor, single point]",
COc1ccc(S(=O)(=O)Nc2cccc(-c3ccc4nncn4n3)c2)cc1,"inconclusive: 1.41 µM [inhibitor, partial curve, poor fit]",
COc1cccc(OCCSc2nc(N)cc(N)n2)c1,"inconclusive: 35.5 µM [inhibitor, single point]",
Cc1ccc2nsnc2c1NC(=O)c1cccnc1Cl,,inactive: 1.4%
O=C(CN1CCN(c2ccc(F)cc2)CC1)NCc1cccs1,,inactive: -7.37%
CC(C)NC[C@@H](O)COc1cccc2[nH]ccc12,"inconclusive: 4.11 µM [activator, single point]",
CCOC(=O)N1CCN(C(=O)COc2cccc3c2CCN(Cc2ccc(F)cc2)C3=O)CC1,"inconclusive: 0.501 µM [inhibitor, partial curve, poor fit]",
CCCCOC(=O)/C=C\C(=O)NC(N)=O,"inconclusive: 35.5 µM [inhibitor, single point]",
O=C(Oc1ccc(N2C(=O)CCC2=O)cc1)c1ccco1,,inactive: 20.2%
Cc1ccc(S(=O)(=O)c2c(C)nn(C(C)(C)C)c2OC(=O)c2ccco2)cc1,"inconclusive: 35.5 µM [inhibitor, single point]",
CC(=O)c1cc(C)c(OCc2cn(CC(=O)c3ccc(O)cc3)nn2)c(C)c1,"inconclusive: 0.445 µM [inhibitor, full curve, poor fit]",
CCC1CCCCN1C(=O)COc1c(Br)cc(Br)c2cccnc12 (stereo not given),"inconclusive: 3.98 µM [inhibitor, full curve]",
